Changes are numbered by the printed parent chain. Construct, isoform or probe ends are uncertain for at least one entry. Results from cells or extracts need not show a direct contact. For part of these data: Weaker means in comparison with the reference protein, sequence or condition of that experiment. Protein sequences can lack the tags named with them.
Assays:
[1] = molecular target: T1, GRP7 (Arabidopsis thaliana) (UniProt Q03250); assay: binding assay; details: protein in cells
T1 sequence (limits assumed): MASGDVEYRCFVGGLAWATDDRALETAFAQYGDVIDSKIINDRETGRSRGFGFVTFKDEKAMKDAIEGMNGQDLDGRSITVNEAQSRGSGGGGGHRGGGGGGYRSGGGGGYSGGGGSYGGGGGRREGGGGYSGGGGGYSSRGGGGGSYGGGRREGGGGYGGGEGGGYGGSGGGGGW

[2] = molecular target: T2, GRP7(R49K) (Arabidopsis thaliana) (UniProt Q03250); assay: binding assay; details: RNA-IP qRT-PCR; strongly impaired; protein in cells; protein details: HA
T2 sequence (limits assumed): T1 sequence (limits assumed) with R49K

“CUUCGUCUACAUCGUUCUACACAUCUCACUGCUCACUACUCUCACUGUAAUCCCUUAGAUCUUCUUUUCAAAUUUCAAUGGCGUCCGGUGAUGUUGAGUAUCGGUGCUUCGUUGGAGGUCUAGCAUGGGCCACUGAUGACAGAGCUCUUGAGACUGCCUUCGCUCAAUACGGCGACGUUAUUGAUUCCAAGAUCAUUAACGAUCGUGAGACUGGAAGAUCAAGGGGAUUCGGAUUCGUCACCUUCAAGGAUGAGAAAGCCAUGAAGGAUGCGAUUGAGGGAAUGAACGGACAAGAUCUCGAUGGCCGUAGCAUCACUGUUAACGAGGCUCAGUCACGAGGAAGCGGUGGCGGCGGAGGCCACCGUGGAGGUGGUGGCGGUGGAUACCGCAGCGGCGGUGGUGGAGGUUACUCCGGUGGAGGUGGUAGCUACGGAGGUGGCGGCGGUAGACGCGAGGGUGGAGGAGGAUACAGCGGCGGCGGCGGCGGUUACUCCUCAAGAGGUGGUGGUGGCGGAAGCUACGGUGGUGGAAGACGUGAGGGAGGAGGAGGAUACGGUGGUGGUGAAGGAGGAGGUUACGGAGGAAGCGGUGGUGGUGGAGGAUGGUAAUUCCUUUAAUUAGGUUUGGGAUUACCAAUGAAUGUUCUCUCUCUCGCUUGUUAUGCUUCUACUUGGUUUUGUGUGUUCUCUAUUUUGUUCUGGUUCUGCUUUAGAUUUGAUGUAACAGUUCGUGAUUAGGUAUUUUGGUAUCUGGAAACGUAAUGUUAAGUCACUUGUCAUUCUCUAAAUAACAAAUUUCUUCGGAGAUAUUAUCUCUGUUGAUUGAUUCUAUCAUCU [GRP7 mRNA]”: binds ([1]; RNA-IP qRT-PCR, reduced when HopU1 co-expressed, protein details: GFP (C-terminal)); binds ([1]; UV-crosslink RNA-IP qRT-PCR, protein details: HA (C-terminal)); binds more weakly [2].

From patent US9169489
